Assay results published in the supplement of paper PMC11451515.

Experiments:
[1] = test system: NOMO1; assay: cell viability relative to DMSO control; higher = less cytotoxic; details: HPLM + 10% dialyzed FBS, 48 h
How it was run: (§1)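 NOMO1 or SEM cells were plated at 500 cells/well and P12-Ichikawa cells at 1000 cells/well in 1536-well plates (5 μl), after each leukemia line had been adapted for at least four passages in each medium. Pin dosing delivered library compounds in DMSO at 11 threefold concentrations, 47 μM to 0.79 nM. CellTiter-Glo One luminescence was read after 48 h at 37°C. Viability is reported as a per-plate percentage of DMSO wells, with cell-free wells as background.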

[2] = test system: P12-Ichikawa; assay: as above; details: HPLM + 10% dialyzed FBS, 48 h
How it was run: as §1

[3] = test system: SEM cells; assay: as above; details: 48 h
How it was run: as §1

[4] = test system: NOMO1; assay: AUC of viability dose-response curve (% viability x log10 dose units); higher = less sensitive; details: 48 h
How it was run: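 Leukemia cells adapted to each medium were seeded at 500 or 1000 cells/well in 1536-well plates and dosed with library compounds in DMSO at 11 threefold doses from 47 μM to 0.79 nM for 48 h at 37°C. CellTiter-Glo One luminescence was normalised per plate to DMSO and cell-free wells, then fitted with a four-parameter log-logistic model over log10 doses. Area under the curve was taken from this fit by the trapezoidal rule, with curves above full viability scaled and curves failing quality control removed.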

Cc1nc2c(-c3cnc(N)nc3)nc(N3CCOCC3)nc2n1C(C)C
Details	AUC of viability dose-response curve, [4]	cell viability, [1] [%]	cell viability, [2] [%]
0.000781 µM	–	108	110
0.00234 µM	–	115	75.5
0.00702 µM	–	81.8	42.9
0.0211 µM	–	39	13.7
0.0632 µM	–	40.7	13.7
0.19 µM	–	41.2	13
0.569 µM	–	34.7	13.5
1.71 µM	–	33.9	15.7
5.12 µM	–	34.9	19.9
15.4 µM	–	33.5	19.9
46.1 µM	–	40.4	24.3
HPLM + 10% dialyzed FBS	226	–	–
RPMI 5 mM glucose + 10% FBS	188	–	–
RPMI 5 mM glucose + 10% dialyzed FBS	240	–	–

cell viability [%], [3]
Details	HPLM + 10% dialyzed FBS	RPMI 5 mM glucose + 10% FBS	RPMI 5 mM glucose + 10% dialyzed FBS
0.000781 µM	88.5	105	111
0.00234 µM	105	42.6	148
0.00702 µM	91.8	27.4	111
0.0211 µM	26.7	30.4	26.3
0.0632 µM	24.8	29.4	27.6
0.19 µM	24	28.3	30
0.569 µM	23.8	25	30.3
1.71 µM	27.2	26.1	31.6
5.12 µM	27.2	20.4	30.7
15.4 µM	29.2	21.7	31.4
46.1 µM	28.9	22.3	33.9
